Data reported in US6998254, “Use of ROR for receptors for screening substances useful for the treatment of atherosclerosis” (Merck Patent Gesellschaft).
For some of these results: Negatives hold for the conditions tested. Where a protein sequence is shown, tags need not be part of it. For some of these results: A weaker result is weaker than the reference pair of the same experiment. For some of these results: Construct, isoform or probe ends are uncertain for at least one entry.

What was measured:
[1] = molecular target: T1, hRORα1 (RORA isoform 1) (Homo sapiens) (UniProt P35398); assay: activity in cells; settings: protein in cells, protein details: expressed from pCDNA3/pCMX/pSG5 vectors, only the site is given
T1 sequence (looked up): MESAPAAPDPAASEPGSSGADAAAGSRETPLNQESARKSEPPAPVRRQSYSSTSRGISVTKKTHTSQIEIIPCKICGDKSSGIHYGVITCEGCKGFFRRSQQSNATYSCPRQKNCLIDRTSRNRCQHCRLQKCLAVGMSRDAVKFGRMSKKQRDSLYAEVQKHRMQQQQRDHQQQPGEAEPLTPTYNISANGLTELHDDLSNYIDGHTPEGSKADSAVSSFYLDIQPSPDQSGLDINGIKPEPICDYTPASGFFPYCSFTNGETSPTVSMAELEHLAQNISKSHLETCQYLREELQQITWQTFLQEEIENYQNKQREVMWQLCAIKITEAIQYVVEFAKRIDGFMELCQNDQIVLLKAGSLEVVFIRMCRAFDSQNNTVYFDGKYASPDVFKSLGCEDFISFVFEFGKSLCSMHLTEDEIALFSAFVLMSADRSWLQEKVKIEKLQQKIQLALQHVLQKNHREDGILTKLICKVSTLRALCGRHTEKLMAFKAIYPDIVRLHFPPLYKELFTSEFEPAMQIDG

[2] = molecular target: T1, hRORα1 (RORA isoform 1) (Homo sapiens); assay: EMSA; settings: protein translated in vitro, protein details: TnT T7 reticulocyte lysate from pCMX-hRORα1, label: 5'-32P

GATCCTTGCCCAGCGCCCTGGGTCCTCAGTGCCTGA / GATCTCAGGCACTGAGGACCCAGGGCGCTGGGCAAG [(-47/-79) Tk reporter]
activity on this sequence ([1]; insensitive): not active

GATCTCATCTCCACTGGTCAGCAGGTGACCTTTGCCCAGCGCCCTG / GATCCAGGGCGCTGGGCAAAGGTCACCTGCTGACCAGTGGAGATGA [hCIII(-62/-102)]
binding result ([2]; specific but weak): binds more weakly

GATCCAGACATAAATAGGCCCTGCAAGAGCA / GATCTGCTCTTGCAGGGCCTATTTATGTCTG [hAITaTa Tk reporter]
activity on this sequence ([1]; insensitive): not active

GATCTGATATAAAACAGGTGCGAACCCTC / GATCGAGGGTTCTGACCTGTTTTATATCA [hCIIITaTaWT (-34/-10)]
binding result [2]: binds

GGAAAAGTGTGTCACTGGGGCACG (double strand) [(RevDR2)3x Tk reporter]
activity on this sequence ([1]; increased sensitivity): active

GATCCTCAGTGCCTGCTGCCCTGGAGATGATATAA / GATCTTATATCATCTCCAGGGCAGCAGGCACTGAG [(-27/-58) multimer Tk reporter]
activity on this sequence ([1]; insensitive): not active

GATCTCAGCAGGTGACCTTTGCCCAGCGCCC / GATCGGGCGCTGGGCAAAGGTCACCTGCTGA [hCIIIC3PDR1WT (-90/-64)]
binding result [2]: binds more weakly
